{
  "source": "patent US20220362340A1",
  "about": "“COMPOSITIONS AND USES THEREOF FOR TREATING IRRADIATION-INDUCED INTESTINAL DAMAGE” (UNIVERSITY OF PITTSBURGH-OF THE COMMONWEALTH SYSTEM OF …, priority 2019, published 2022)",
  "molecules": {"B1": {"name": "G-CSF: Granulocyte colony-stimulating factor polypeptide, irradiation mitigator (protein, listed as Homo sapiens)", "chain": "MAGPATQSPMKLMALQLLLWHSALWTVQEATPLGPASSLPQSFLLKCLEQVRKIQGDGAALQEKLVSECATYKLCHPEELVLLGHSLGIPWAPLSSCPSQALQLAGCLSQLHSGLFLYQGLLQALEGISPELGPTLDTLQLDVADFATTIWQQMEELGMAPALQPTQGAMPAFASAFQRRAGGVLVASHLQSFLEVSYRVLRHLAQP"}},
  "test_system": "intestinal microbiome",
  "assay": "Fecal microbiome analysis after TBI",
  "type": "in vivo, mouse",
  "settings": "fecal samples 14 days after LD80/30 TBI; FIG. 16A",
  "data": [
    {"molecule": "B1", "values": [
      {"measurement": "additional taxa differences in survivors versus rad-control", "value": "decreased Akkermansia"}
    ]}
  ]
}
